# Percent effect of library compounds

Mtb glucose medium: 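Phenotypic screen: M. tuberculosis growth, glucose 7H9 medium, 3 days; the read-out is not stated. Tested at 50 µM. Higher reads as more growth inhibition (inferred: compounds with an IC50 in retests scored well above the rest). Of about 69,000 compounds tested this way, about 760 (1.1%) reached 50% or more in at least one test.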
Mtb cholesterol medium: 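Phenotypic screen: M. tuberculosis growth, cholesterol and DPPC medium, 4 days; the read-out is not stated. Tested at 50 µM. Higher reads as more growth inhibition (inferred: compounds with an IC50 in retests scored well above the rest). Size under these conditions: about 69,000 compounds, about 370 of them at 50% or above in at least one test.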

Results are given as percent effect. The controls that fix the scale are not given in the record; negative values are as filed. This is an unselected part of the compounds tested. Two or more numbers in one place are separate tests of the same structure; such repeats can differ widely.

SMILES | Mtb glucose medium | Mtb cholesterol medium
COc1ccc(CCCC(=O)N2CCCC(n3cncn3)C2)cc1 (stereo not given) | -2.942% and -0.4612% | -4.43%
CCC[C@@H]1CN(C(=O)c2c(F)ccc(C)c2Cl)C[C@H]1C(=O)O | 21.83% | -5.396%
Cc1cc(C(=O)N2CCCC2c2noc(C(C)C)n2)c(C)o1 (stereo not given) | 8.601% | 4.802%
O=C(Cn1cc(-c2ccccc2)ncc1=O)Nc1ccncc1 | -20.17% | -23.72%
[H][C@@]12OCCN(C(=O)c3ccco3)[C@@]1([H])CC[C@H]2OC | 1.454% and 1.007% | 9.416%
CCNC(=O)CCN1CCC(c2cc(N3CCOCC3)nc(C)n2)CC1 | -12.29% | -4.085%
Cn1cc(I)c(C(=O)NC2CCCC2)n1 | -13.62% | -18.68%
CCS(=O)(=O)NC(CCSC)C(=O)Nc1ccc(F)cc1 (stereo not given) | -7.588% | -15.27%
CCN(C)C(=O)CCN(C)Cc1cnc(C)s1 | -2.534% | 0.6948%
Cn1nc(C(=O)NC2(c3ccc(Cl)cc3)CCCC2)ccc1=O | 2.043% and -2.52% | 19.33%
O=C(O)C(F)(F)F.O=C(O)C(F)(F)F.O=C(O)C(F)(F)F.[H][C@@]12CCCO[C@]1([H])[C@H](Nc1ccccn1)CN(Cc1ccccn1)C2 | -1.153% | -14.88%
COc1ccc(C(C)NC(=O)Nc2nccs2)cc1OC (stereo not given) | 10.98% | -13.76%
O=C(NCCn1ccnc1)N1CCN(Cc2ccsc2)CC1 | -8.125% | -17.41%
O=C(c1cc(C2CC2)on1)N1CCC(Oc2ncccc2Br)CC1 | 34.07% and 52.9% | 8.377%
CS(=O)(=O)NCC1CCCN(C(=O)COCC(F)(F)F)C1 (stereo not given) | -12.08% | -7.949%
CNc1nc(CNC(=O)Nc2cccc(COCCOC(C)C)c2)cs1 | 22.85% and 15.56% | 22.43%
COc1nc2c(cc1C(=O)N(C)Cc1noc3c1CCCC3)CCC2 | 15.03% | 6.094%
CNC(=O)[C@@H]1C[C@@H](N)CN1c1nnc(-c2ccccc2)s1 | -7.306% and -0.3358% | -8.167%
CC(C)(C)SCC(=O)Nc1cc(-n2nnnc2C2CC2)ccc1F | -27.11% and 8.029% | -11.1%
COc1ccc(CN2CCC3(CC2)CCN(CCN(C)C)C3=O)cc1.O=C(O)C(F)(F)F.O=C(O)C(F)(F)F | 25.99% | 6.568%
Cc1ncc(C(=O)N2CCCN(Cc3ccccc3F)CC2)c(O)n1 | -1.131% | -20.75%
COc1ccc2c3c1CN(S(C)(=O)=O)CC3=CC(C)(C)CO2 | 20.57% | 1.122%
CC(C)CCN(C(=O)c1nc(S(C)(=O)=O)n2ccccc12)C1CC1 | 19.06% | 4.01%
CS(=O)(=O)NCC1CCCN(C(=O)COCc2ccccc2)C1 (stereo not given) | -20.21% | -12.47%
O=C(Cc1ccsc1)NC1CCc2c(ccc(=O)n2CC2CC2)C1 (stereo not given) | -2.496% and -24.57% | -20.48%
Clc1snnc1CN1CCCCC1Cn1cccn1 (stereo not given) | -22.08% | -14.48%
Cc1nc(CN2CCc3cncnc3C2)oc1C | -14.06% and -2.34% | -16.73%
CS(=O)(=O)c1snnc1C1CCN(Cc2cccnc2)CC1 | -18.07% | 1.804%
Cc1nn(CCN2CCSCC2)cc1CNCC1CC1 | -19.48% | -14.63%
O=C(c1cccc2ncccc12)N1CCC(Nc2cccnn2)CC1 | 21.97% | 1.467%
OCC1CCCN1c1cc(N2CCN(c3ccccn3)CC2)ncn1 (stereo not given) | -5.123% | 3.408%
CS(=O)(=O)N1CC[C@H](c2nc3ccc(C(F)(F)F)cc3[nH]2)C1 | 28.21% and 19.41% | 16%
O=C(CCn1cccn1)N1CCN(CC(F)F)CC1 | 24.06% | 11.05%
OC(CNCCn1cccn1)COc1ccc(Br)cc1 (stereo not given) | 23.46% | 25.22%
O=C(O)C(c1ccc2c(c1)OCCO2)N1CCCC1 (stereo not given) | 5.655% | 0.3743% and 20.42%
Cc1nc(CN2CCN(C(C)c3nc(C(C)C)no3)CC2)oc1C (stereo not given) | 10.52% | 1.709%
Cc1cc(-c2cnn(CCNC(=O)Cc3ccccn3)c2C2CC2)on1 | 2.896% | -14.74%
NC(=O)c1cnc(NC2CC2)nc1CCNC(=O)Cc1ccccc1 | -7.958% | -21.09%
CC(NC(=O)Cc1ccon1)c1ccc(OCC2CC2)c(F)c1 (stereo not given) | 6.842% | 15.91%
Fc1ccc(C(CNc2ccncn2)N2CCCC2)cc1 (stereo not given) | -35.41% | -40.89%
CC(C)NC(=O)NCc1cc(-c2ccco2)n(CC(F)(F)F)n1 | -7.121% | -20.58%
CC(Cn1cccn1)NC(=O)NCCc1cccnc1 (stereo not given) | -2.354% and -15.05% | -1.516%
[H][C@@]12CCN(C(=O)C3CCOCC3)[C@]1([H])CCC(=O)N2CC1CC1 | 8.573% and -6.717% | 5.519%
Cc1nn2c(N3CCC(O)C3)cc(-c3ccccc3)nc2c1C (stereo not given) | 26.34% | -3.367%
Cc1nnc2n1CCN(C(=O)c1cc(C)n(-c3ccccn3)c1C)C2 | 10.62% | 9.264%
O=C(CCn1cc(Cl)cn1)Nc1ncccn1 | 14.52% | 10.46%
CSc1ccc(-c2nc(CN3CCC(CN)C3)c(C)o2)cc1 (stereo not given) | 23.95% | 6.1%
OC1(CN2CCC(Oc3cccc(C(F)(F)F)c3)CC2)CNCCOC1 (stereo not given) | 31.52% | 42.42%
O=S(=O)(c1cccs1)N1CCCCC1c1ccn[nH]1 (stereo not given) | 12.73% | -27.6%
COc1cccc(C2CC(=O)Nc3c2cnn3C(C)(C)C)c1 (stereo not given) | -17.1% | 3.578%
CCCNC(=O)c1cc2c([nH]c1=O)CC(c1cccs1)CC2=O (stereo not given) | 7.637% | 5.377%
C[C@@H]1CN(CCOc2ccc(F)cc2)CC[C@@]1(O)C1CCOCC1 | -7.466% | -6.966% and 13.08%
O=C(c1cnn2c1OCCC2)N1CCN(C/C=C/c2ccccc2)CC1 | 21.07% | 2.512%
CS(=O)(=O)N1CC2(CCCN(CC3CC3)C2)Cc2ccccc21 (stereo not given) | 8.47% | -4.567%
Cc1ccc(N2CCCC(NCCS(C)(=O)=O)C2)nn1 (stereo not given) | 20.44% | 5.037%
O=S(=O)(NC1CCN(CC(F)(F)F)C1)c1cc(F)cc(F)c1 (stereo not given) | 4.776% and 21.78% | 13.72%
COc1c(CNCCc2c[nH]c3ccccc23)c(C(C)C)nn1C | 15.52% | -10.46% and -2.783%
CCN1CC2(CNCCN(C(=O)Nc3ccccc3)C2)CC1=O.O=C(O)C(F)(F)F (stereo not given) | -14.23% | -22.04%
Cc1ccc(NC2CCN(C(=O)CC3CCCO3)CC2)nn1 (stereo not given) | 19.46% | 14.33%
[H][C@@]12CN(CC(CC)CC)C[C@]1([H])OCCN2Cc1cnn(C)c1 | -10.8% and -2.706% | -5.979% and -7.784%
COC(=O)c1ccc(OC)c(Cn2cc(N)cn2)c1 | -0.7329% and -8.495% | -0.9271%
COc1ccc2c(ccn2CC(=O)Nc2n[nH]c(CC(C)C)n2)c1 | 13.97% | 16.37%
O=C(O)C(F)(F)F.[H][C@@]12C[C@@H](C(=O)NC(C)C)C[C@@]1([H])N(Cc1ccco1)CCO2 | 0.3043% and 8.635% | -7.544%
COc1ccc(C(=O)NCC(c2cccn2C)N2CCCC2)c(OC)c1 (stereo not given) | 40.14% | 9.765%
Cc1cccc(C2(O)CCN(Cc3ccccc3N3CCCC3)CC2)c1 | 86.81% | 83.21%
CC(C)c1nnc2n1CCN(CCC(=O)N1CCc3ccccc31)C2 | 2.13% | 5.349%
Cc1cc(NC(=O)CN2CCn3c(nnc3C(C)C)C2)n(C)n1 | -32.54% | -20.59%
CN(C)c1ccc(CN(CC2CCCO2)C(=O)c2csnn2)cc1 (stereo not given) | 27.82% and 14.13% | 12.87%
O=C(c1ccc[nH]1)N1CCC2(CC1)COCCN(c1nccs1)C2 | -0.04968% and 5.884% | 12.62%
N#Cc1cccc(C(=O)N2CC(c3nc(-c4ccc[nH]c4=O)no3)C2)c1 | -8.659% and 4.149% | -1.522%
CC(C)(C)OCC1CN(Cc2cccs2)S(=O)(=O)c2cnccc2O1 (stereo not given) | 13.96% | -5.266%
CNC(=O)C1CCC2(CCNCC2)C1.O=C(O)C(F)(F)F (stereo not given) | -13.89% | 5.539%
CCN1CCC(CC(=O)NCc2cc(C)nn2C)CC1 | -1.356% and -2.783% | 0.9776%
Cc1nn(C)c2c(=O)n(CC(=O)Nc3cc(Cl)cc(Cl)c3)nnc12 | -11.77% | -5.217%
Cc1c(NC(=O)N(C)CCn2cnnc2)cccc1OC1CCCC1 | -10.18% | -12.69%
Cc1cccc(OC2CN(C(=O)C3CC(=O)N(C4CC4)C3)C2)c1 (stereo not given) | -22.08% | -26.25%
O=C(c1cc(C2CC2)[nH]n1)N1CCCN(c2nccs2)CC1 | 12.35% | -1.3%
Cc1cc(-c2ccc(C(C)N3CCOCC3)cc2)cnc1N (stereo not given) | 17.32% and 5.557% | 24.42%

For reference, 7 entries once more:

{"smiles": "CC(C)(C)SCC(=O)Nc1cc(-n2nnnc2C2CC2)ccc1F", "Mtb glucose medium": "-27.11 and 8.029", "Mtb cholesterol medium": -11.1}
{"smiles": "CS(=O)(=O)NCC1CCCN(C(=O)COCC(F)(F)F)C1", "stereo": "stereo not given", "Mtb glucose medium": -12.08, "Mtb cholesterol medium": -7.949}
{"smiles": "CNC(=O)C1CCC2(CCNCC2)C1.O=C(O)C(F)(F)F", "stereo": "stereo not given", "Mtb glucose medium": -13.89, "Mtb cholesterol medium": 5.539}
{"smiles": "CCC[C@@H]1CN(C(=O)c2c(F)ccc(C)c2Cl)C[C@H]1C(=O)O", "Mtb glucose medium": 21.83, "Mtb cholesterol medium": -5.396}
{"smiles": "Cc1cc(NC(=O)CN2CCn3c(nnc3C(C)C)C2)n(C)n1", "Mtb glucose medium": -32.54, "Mtb cholesterol medium": -20.59}
{"smiles": "Cc1cc(-c2ccc(C(C)N3CCOCC3)cc2)cnc1N", "stereo": "stereo not given", "Mtb glucose medium": "17.32 and 5.557", "Mtb cholesterol medium": 24.42}
{"smiles": "O=C(CCn1cccn1)N1CCN(CC(F)F)CC1", "Mtb glucose medium": 24.06, "Mtb cholesterol medium": 11.05}

The values are deposited in ChEMBL (CHEMBL3988442, “University of Dundee, Small-Polar-MMV Screening Library” (2021)).